This passage reports Average rlu results from US20030104507A1, “Method for detection of ATP” (priority 2001, published 2003).

Further values from the same series stand in other lists.

In the test the test system is Jurkat cells. Kind of test: Effect of NaF on Jurkat cell luminescence. It is filed as cell-based. The conditions noted are these: 10.0 mM NaF, without KPO4, 50000 cells/well. The text has this: In some cells, such as lymphoid cells (e.g., Jurkat), an increase in luminescence over time in the presence of the reagent composition solution is observed. While the underlying mechanism of this increase in luminescence is not known, it is postulated that it results from the functioning of ATP-generating enzymes in this cell. The activity of such enzymes, if left unchecked, will result in an over-estimation of ATP in a sample at the time of the assay. This experiment was designed to test the effects of sodium fluoride on luminescence when using lymphoid cells.
Jurkat cells (ATCC, CRL-1990) were grown in 5% CO2/95% air, 100% humidity at 37° C. and maintained in RPMI media (Sigma, R-8005) containing 10% FBS (Hyclone #SH30070), 1X non-essential amino acids (Hyclone SH30238) and 1 mM sodium pyruvate (Hyclone #SH30239). Cells were plated at 0, 12500, 25000, and 50000 cells/well in 100 μl of media in a 96-well microtiter luminometer plate. Quadruplicate replicates were prepared. To each of these wells was added reagent composition (reagent composition=40 mM Citrate buffer (pH 6.0), 110 mM MES buffer (pH 6.0), 0.2 mM EDTA, 0.2% Gelatin, 100 μg/ml Luciferase (LucPpe2m146, diluted from 37.8 mg/ml stock solution), 100 μM luciferin, 300 mM NaCl, 20 mM MgSO4, 0.05% Mazu DF-204, 0.6% DTAB). In addition, all but the “no KPO4” control sample contained 60 mM KPO4 buffer (pH 6.0). Various concentrations of NaF were then added to the above solution to final concentrations of 0, 1.0, 2.0, 4.0, 10.0 mM; one condition had 10.0 mM NaF but without KPO4.
Total reaction volume per well was 200 μl, consisting of 100 μl cells plus media and 100 μl reagent composition containing KPO4 and/or NaF. The light output was taken at various times on a Dynex microtiter plate luminometer at a 0.5 second read time. The resulting average rlus from quadruplicate wells and calculated signal stabilities as measured by their half-life values are reported in Table S.

As to `[F-].[Na+]` [NaF, sodium fluoride], the Average rlu is, setting by setting: (85 min) 1340.91 rlu; (130 min) 1258.88 rlu; (220 min) 889.88 rlu; (255 min) 865.24 rlu; (285 min) 807.41 rlu.
